According to the supplement of paper PMC3334620:
Over roughly 33,000 sequences, “E-score (-0.5 to 0.5)” has its median near -0.015; the highest 2% begin near 0.3. The list shows a part of the results.

Biological target: T1, Abf1 (UniProt P14164)
T1 sequence: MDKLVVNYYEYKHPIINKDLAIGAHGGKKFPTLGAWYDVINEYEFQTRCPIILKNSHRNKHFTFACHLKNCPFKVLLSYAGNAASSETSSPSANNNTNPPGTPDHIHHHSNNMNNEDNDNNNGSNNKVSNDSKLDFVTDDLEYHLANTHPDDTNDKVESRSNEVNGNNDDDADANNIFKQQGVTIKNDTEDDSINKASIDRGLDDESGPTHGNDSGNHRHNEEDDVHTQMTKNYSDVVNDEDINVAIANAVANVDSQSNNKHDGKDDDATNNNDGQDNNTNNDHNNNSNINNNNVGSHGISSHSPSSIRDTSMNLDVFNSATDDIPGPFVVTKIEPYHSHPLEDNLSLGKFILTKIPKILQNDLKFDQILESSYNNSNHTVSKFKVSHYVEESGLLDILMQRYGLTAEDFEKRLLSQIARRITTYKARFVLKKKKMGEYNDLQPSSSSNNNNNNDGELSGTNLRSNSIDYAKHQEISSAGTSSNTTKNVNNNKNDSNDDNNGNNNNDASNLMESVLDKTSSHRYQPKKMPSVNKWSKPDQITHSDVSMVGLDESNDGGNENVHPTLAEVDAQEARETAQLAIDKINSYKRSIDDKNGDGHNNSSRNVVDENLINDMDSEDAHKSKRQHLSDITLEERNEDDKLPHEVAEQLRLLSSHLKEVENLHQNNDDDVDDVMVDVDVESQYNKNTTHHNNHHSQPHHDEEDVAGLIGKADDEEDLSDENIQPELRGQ
Assay: PBM E-score (8-mer binding enrichment) (E-score (-0.5 to 0.5)); higher = stronger / more preferred TF binding
Settings: protein concentration: 200 nM; construct: GST-full length
Description: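 Universal 'all 10-mer' protein binding microarrays (Agilent AMADID 015681) probed with GST-tagged S. cerevisiae TFs (full-length or DBD) made by in vitro transcription/translation (PURExpress), about 100-200 nM. Bound TF was detected with fluorescent anti-GST. Each ungapped 8-mer (which stands for itself and its reverse complement) is scored by the PBM enrichment score (E-score), a modified Wilcoxon-Mann-Whitney statistic from -0.5 to +0.5, computed with the Universal PBM Analysis Suite. Scale: above 0.35 generally sequence-specific binding.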

Row | Sequence | PBM E-score
1 | GATATGAC | 0.204
2 | GGACTCCC | -0.334
3 | AAATACAG | -0.0657
4 | TAACAAGA | -0.0715
5 | AATAACCC | -0.0705
6 | CGGACTCA | -0.0787
7 | AATGTGGT | -0.0389
8 | AGCGTGAG | 0.04
9 | ATGCAGTG | 0.00936
10 | AATTCGCT | 0.143
11 | ACGACCTA | 0.183
12 | AGGGCTTA | -0.232
13 | ACCTTCCA | -0.173
14 | ATGCCGGC | 0.106
15 | ACGCTAAC | -0.121
16 | GCGACCGC | 0.00813
17 | CTAGATGA | 0.0708
18 | CAGGCACA | -0.196
19 | AGAGGTGC | -0.245
20 | GTAATAAC | 0.124
21 | GAGGTTTA | -0.0992
22 | GTGCTGGA | -0.141
23 | CCTGTGGA | -0.199
24 | GCAAGATA | 0.108
25 | AAGGAAGC | -0.403

Row | Sequence | PBM E-score
26 | TAGAACCA | -7e-05
27 | ACCCCGCG | -0.208
28 | CCCCCAAC | -0.381
29 | GTAGCAGA | 0.0905
30 | ATCGGACC | -0.107
31 | GACGCCAC | -0.0658
32 | CAATTTGC | -0.24
33 | GCCCTTCC | -0.348
34 | ATTTAGAG | -0.0393
35 | AAGCGTTA | -0.241
36 | AGTGAGTC | -0.0895
37 | ACCTCAGT | -0.0717
38 | ATGGTGGA | -0.127
39 | AACTGTCT | -0.0987
40 | CCGTTTAG | 0.124
41 | AGGGTCGA | -0.0783
42 | AGCAGTGA | 0.163
43 | CCTCAAAG | 0.0344
44 | ATATGCAG | -0.0433
45 | GCTGGTCA | -0.022
46 | ACAATGAG | -0.0761
47 | CCACGCTC | -0.119
48 | ATCGACAC | -0.112
49 | ACGGTGAC | 0.226
50 | CTTCACAA | -0.25

Single values from the results shown:
In PBM E-score, AAGCGTTA reads -0.241
In PBM E-score, AGTGAGTC reads -0.0895
In PBM E-score, AATTCGCT reads 0.143
In PBM E-score, ACAATGAG reads -0.0761

(listing goes on)

Row | Sequence | PBM E-score
51 | CACGGTGG | 0.0869
52 | ACCGGGGC | -0.161
53 | GCGAAGTA | 0.0895
54 | CGAGAAAC | 0.0254
55 | AACCGCTT | -0.123
56 | ATTCGCTG | 0.0634
57 | ATCGGGAG | -0.0901
58 | GACCGCGC | -0.123
59 | AAGCGGAC | -0.0153
60 | CCGTCATA | 0.37
61 | CAATTAGC | -0.0409
62 | ACACTTTA | -0.0188
63 | CTGATAAG | 0.0278
64 | TACCATGA | 0.00159
65 | AGGGCCCG | -0.0617
66 | ACCAATCA | -0.00623
67 | GTCTTTCA | -0.0873
68 | ACGTTTGC | 0.0331
69 | ACAGACAT | 0.0626
70 | CCCCCACA | -0.204
71 | CCACGCCC | -0.17
72 | ACTTGTCT | -0.0797
73 | AGACGGGA | 0.0337
74 | ATTCTCCA | 0.0932
75 | ACTAACTC | -0.131

Another view of part of the listing above.
Row,Sequence,PBM E-score
5,AATAACCC,-0.0705
6,CGGACTCA,-0.0787
7,AATGTGGT,-0.0389
8,AGCGTGAG,0.04
9,ATGCAGTG,0.00936
10,AATTCGCT,0.143
11,ACGACCTA,0.183

Next entries:

Row | Sequence | PBM E-score
76 | ACGTCGAT | 0.133
77 | CAACCTGG | -0.0413
78 | CCCCGGAA | -0.22
79 | ACATAAAA | 0.147
80 | AAATCAGA | 0.195
81 | CTGCCGAC | -0.121
82 | GATAGTAC | 0.129
83 | AACAGTGG | -0.155
84 | ATCTTTCG | 0.0828
85 | CCTACCCC | -0.374
86 | GGTCATAA | 0.0104
87 | ACGTCAAG | 0.154
88 | AAGGCACA | -0.0687
89 | TAGGGTAA | -0.00561
90 | ACGTGAAA | 0.261
91 | ATCATGAT | 0.416
92 | CGCCATTC | -0.00985
93 | ACCCACTA | 0.0205
94 | AGTGCCCC | -0.194
95 | CATCGAGG | -0.129
96 | GTGCTCAA | 0.178
97 | CCTCCCCC | -0.409
98 | AGAAAGTA | 0.117
99 | GGCGCGAC | -0.0287
100 | CCGTGCAC | 0.31

Row | Sequence | PBM E-score
101 | AAATGCCA | 0.0339
102 | ATCCTCCC | -0.202
103 | CATTACCA | 0.045
104 | AGGCGGGG | -0.235
105 | CAAGGACC | -0.049
106 | ACGTGTAA | 0.235
107 | AAGCGCAG | -0.116
108 | ATTATTTA | 0.254
109 | ATATTCGA | 0.0536
110 | CCTTACTA | 0.0197
111 | ACACTGTA | 0.0152
112 | TCTCTCCA | -0.031
113 | TCCCAGAA | -0.0505
114 | CCCGAATC | -0.0912
115 | TCGCCTCA | 0.0789
116 | GTATGCGA | 0.0467
117 | AGCGTACC | -0.229
118 | ACAGATAA | -0.0725
119 | CTCCGTTA | 0.172
120 | AATCAATC | 0.157
121 | GATGTTAA | 0.109
122 | ACGTGAAC | 0.00568
123 | CGTGGAAC | 0.206
124 | ATTGTGGA | -0.0505
125 | GACGGGGA | 0.168

Row | Sequence | PBM E-score
126 | CGCGGGCC | -0.0335
127 | CCATTCAG | -0.098
128 | CAGATGCC | -0.146
129 | CACTACAG | -0.0739
130 | CGGAGTAC | 0.00568
131 | GGTAACCA | -0.206
132 | ATGTAGTC | 0.0332
133 | GCTTTGAA | -0.0788
134 | TGATCCCA | -0.0944
135 | CCCGTGAG | 0.0776
136 | CCCGCAGG | -0.169
137 | TAGTACAA | 0.098
138 | AAAAGCCA | -0.0538
139 | CGCACTTA | -0.0116
140 | TCGGTACA | -0.0742
141 | ACGTCAGG | -0.0567
142 | CATCGGGG | -0.206
143 | AAAGGCTG | -0.236
144 | CACTTCTA | 0.047
145 | AAGAACGA | 0.253
146 | CTGATCAC | 0.294
147 | GCTTGGTA | -0.0205
148 | AGGTCCTA | -0.211
149 | GGATGGGA | -0.25
150 | CATGGTAC | -0.136

Row | Sequence | PBM E-score
151 | GCTCCAAA | -0.0766
152 | ATCCTATG | 0.0287
153 | AACGAGCA | 0.108
154 | ATTAATAA | 0.129
155 | ATCTCCGG | -0.067
156 | AATCATGG | -0.0546
157 | TGAGGGAA | -0.159
158 | ATTTAAGG | 0.171
159 | CTACGCTA | -0.0892
160 | AACGTCTC | 0.0454
161 | AATAGTCA | 0.204
162 | AGCAGGCC | -0.212
163 | ATTTCTGG | -0.0765
164 | ATCTCGAA | 0.0741
165 | GGAGGATA | 0.0711
166 | CTGTGAGC | 0.0673
167 | CGTCATCA | 0.349
168 | CCCTACAC | -0.0163
169 | AATGAGGT | 0.184
170 | TACACGTA | 0.07
171 | CTAGTCTC | -0.138
172 | CAACGCAC | -0.0614
